Results from paper PMC5787431.
No constants are given. Whether binding was seen depends on the method and setting. Binding seen in cells or lysates may run through a third protein. Some entries that bind do so weakly or less than the wild type.

Chains of the proteins cited; added tags and fusions are not shown.
UniProt Q9UER7: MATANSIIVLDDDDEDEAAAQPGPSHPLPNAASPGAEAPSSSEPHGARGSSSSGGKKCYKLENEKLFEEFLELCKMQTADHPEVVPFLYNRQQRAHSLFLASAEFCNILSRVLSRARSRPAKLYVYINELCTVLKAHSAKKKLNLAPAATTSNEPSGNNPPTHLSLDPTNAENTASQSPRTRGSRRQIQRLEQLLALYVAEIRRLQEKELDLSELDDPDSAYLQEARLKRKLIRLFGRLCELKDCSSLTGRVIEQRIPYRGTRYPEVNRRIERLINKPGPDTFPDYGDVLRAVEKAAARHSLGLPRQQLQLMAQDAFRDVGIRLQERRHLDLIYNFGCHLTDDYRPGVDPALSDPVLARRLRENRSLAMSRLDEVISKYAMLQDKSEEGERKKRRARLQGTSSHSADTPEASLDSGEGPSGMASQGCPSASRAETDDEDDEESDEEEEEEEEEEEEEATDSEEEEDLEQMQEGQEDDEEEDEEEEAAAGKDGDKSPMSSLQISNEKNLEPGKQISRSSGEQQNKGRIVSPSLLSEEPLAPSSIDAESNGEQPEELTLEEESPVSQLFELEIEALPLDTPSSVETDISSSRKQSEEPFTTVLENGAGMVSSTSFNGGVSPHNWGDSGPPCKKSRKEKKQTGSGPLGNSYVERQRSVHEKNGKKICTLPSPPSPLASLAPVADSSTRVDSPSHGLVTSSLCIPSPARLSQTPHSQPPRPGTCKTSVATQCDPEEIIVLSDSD
UniProt Q9QR71: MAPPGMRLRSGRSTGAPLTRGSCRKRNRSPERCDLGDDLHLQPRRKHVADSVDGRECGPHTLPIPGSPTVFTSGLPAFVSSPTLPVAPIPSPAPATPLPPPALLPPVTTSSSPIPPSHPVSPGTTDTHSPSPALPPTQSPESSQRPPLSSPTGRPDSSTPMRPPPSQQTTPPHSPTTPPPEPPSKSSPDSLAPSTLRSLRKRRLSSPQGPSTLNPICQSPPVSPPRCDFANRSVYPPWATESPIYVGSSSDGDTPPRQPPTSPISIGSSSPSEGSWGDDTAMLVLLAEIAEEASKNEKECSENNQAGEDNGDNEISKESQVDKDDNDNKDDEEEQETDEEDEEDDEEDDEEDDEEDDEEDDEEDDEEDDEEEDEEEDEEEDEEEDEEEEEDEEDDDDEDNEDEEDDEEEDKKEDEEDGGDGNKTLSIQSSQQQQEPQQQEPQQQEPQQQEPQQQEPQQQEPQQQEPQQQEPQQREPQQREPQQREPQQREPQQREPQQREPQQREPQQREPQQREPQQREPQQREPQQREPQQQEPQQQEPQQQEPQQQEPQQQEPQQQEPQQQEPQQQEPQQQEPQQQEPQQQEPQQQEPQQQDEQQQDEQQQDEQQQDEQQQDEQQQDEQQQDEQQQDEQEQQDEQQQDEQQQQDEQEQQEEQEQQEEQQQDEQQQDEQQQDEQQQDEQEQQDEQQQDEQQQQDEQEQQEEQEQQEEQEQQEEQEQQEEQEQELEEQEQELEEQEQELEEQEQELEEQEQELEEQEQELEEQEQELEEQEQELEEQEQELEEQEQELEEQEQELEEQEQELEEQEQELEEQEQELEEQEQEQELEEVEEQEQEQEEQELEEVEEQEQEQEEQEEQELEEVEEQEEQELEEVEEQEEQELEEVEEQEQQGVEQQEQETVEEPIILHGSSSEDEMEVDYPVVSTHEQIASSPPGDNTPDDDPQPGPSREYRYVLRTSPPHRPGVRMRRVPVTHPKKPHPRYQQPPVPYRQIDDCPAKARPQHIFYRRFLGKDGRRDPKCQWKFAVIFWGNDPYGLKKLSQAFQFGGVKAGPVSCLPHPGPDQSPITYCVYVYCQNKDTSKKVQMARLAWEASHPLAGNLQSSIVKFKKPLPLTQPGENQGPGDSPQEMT

Biological target: death domain-associated protein 6 (Daxx) (human (endogenous in BJAB and BC3)) (UniProt Q9UER7)
Assay: co-IP; immunoprecipitation with anti-Daxx antibody from lysates of LANA-expressing (B-L-YFP) and control (B-YFP) BJAB cells, and of KSHV-infected BC3 and KSHV-negative BJAB cells; RIPA buffer (50mM Tris-HCl pH 7.5, 150mM NaCl, 1mM EDTA, 1% NP-40), overnight at 4°C, protein A and G sepharose, Western blot

| Substance | binding |
| --- | --- |
| LANA (latency-associated nuclear antigen) of KSHV, viral protein in infected BC3 cells (from UniProt Q9QR71 1-1129) | binds |
| YFP-LANA-Flag (KSHV latency-associated nuclear antigen, lentiviral construct pLVx-AcYFP-C1-LANA-Flag) (from UniProt Q9QR71 1-1129) | binds |
